According to patent publication US20130108636A1:
These are yes or no findings as the source states them, for the method shown.

Protein sequences, listed by entry. Tags and fused reporters are not part of them. Residues count along the entry.
UniProt P02769, residues 25-607: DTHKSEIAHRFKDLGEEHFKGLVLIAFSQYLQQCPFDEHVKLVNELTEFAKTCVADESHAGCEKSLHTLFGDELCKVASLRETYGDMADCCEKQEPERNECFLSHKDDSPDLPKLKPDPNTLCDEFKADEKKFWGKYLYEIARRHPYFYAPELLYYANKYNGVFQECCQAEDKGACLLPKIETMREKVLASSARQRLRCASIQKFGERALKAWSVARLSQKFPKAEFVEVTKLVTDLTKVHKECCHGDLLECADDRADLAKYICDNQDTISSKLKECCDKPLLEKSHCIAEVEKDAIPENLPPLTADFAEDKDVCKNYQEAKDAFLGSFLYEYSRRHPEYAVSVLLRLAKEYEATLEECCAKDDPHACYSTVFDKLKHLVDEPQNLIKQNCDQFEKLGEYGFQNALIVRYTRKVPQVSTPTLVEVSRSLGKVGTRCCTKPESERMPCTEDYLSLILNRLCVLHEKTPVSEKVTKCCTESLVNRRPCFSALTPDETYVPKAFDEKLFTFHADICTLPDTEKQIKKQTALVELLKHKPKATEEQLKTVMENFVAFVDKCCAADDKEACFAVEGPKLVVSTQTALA

Target: BSA (Bos taurus) (UniProt P02769)
Assay: ELISA, OD 450 nm, BSA as unrelated antigen

Row | Binder | binding
1 | m36.1 (VHH) VHH: QVQLVQSGGGLVQPGGSLRLSCAASTFDFSDYEMSWVREAPGKGLEWIGEINDSGNTIYNPSLKNRVTISRDNSKNTLYLQMNTLRAEDTAIYYCAIYGGNSGGEYWGQGTLVTVSS | no binding (tested: about 6700 nM)
2 | m36.2 (VHH) VHH: QVQLVQSGGGLIQPGGSLRLSCAASAFDFSDYEMSWVRQDPGKGLEWIGEINDRGNTIYNPSLKSRVTISRDNSKNTLYLQMNTLRAEDTAIYYCAIYGGNSGGEYWGQGTLVTVSS | no binding (tested: about 6700 nM)
3 | m36.4 (VHH) VHH: QVQLVQSGGGLVQPGGSLRLSCAASAFDFSDYEMSWVREAPGKGLEWIGEINDSGNTIYNPSLKSRVTISRDNSKNTLYLQMNTLRAEDTAIYYCAIYGGNSGGEYWGQGTLVTVSS | no binding (tested: about 6700 nM)
4 | m36.5 (VHH) VHH: QVQLVQSGGGLVQPGGSLRLSCAASAFDFSDYEMSWVREAPGKGLEWIGEINDSGNTIYNPSLKSRVTISRDNSKNTLYLQMNTLSAEDTAIYYCAIYGGNSGGEYWGQGTLVTVSS | no binding (tested: about 6700 nM)
